Measurements published in article doi:10.1101/2023.03.02.530905 (bioRxiv, 2023).

Amino acid sequences for entries named in this document (tags omitted).
UniProt Q9BQQ3: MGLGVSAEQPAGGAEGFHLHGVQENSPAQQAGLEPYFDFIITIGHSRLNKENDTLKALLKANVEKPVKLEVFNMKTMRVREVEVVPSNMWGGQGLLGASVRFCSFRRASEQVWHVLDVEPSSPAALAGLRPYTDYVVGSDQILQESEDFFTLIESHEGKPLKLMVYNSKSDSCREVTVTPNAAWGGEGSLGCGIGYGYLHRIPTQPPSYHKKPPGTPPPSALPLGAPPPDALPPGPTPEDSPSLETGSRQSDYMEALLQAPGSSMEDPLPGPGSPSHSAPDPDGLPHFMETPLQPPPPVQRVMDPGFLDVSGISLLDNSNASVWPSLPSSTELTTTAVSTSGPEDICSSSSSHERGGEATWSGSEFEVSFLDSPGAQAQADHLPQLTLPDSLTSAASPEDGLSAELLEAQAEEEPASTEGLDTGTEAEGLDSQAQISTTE
UniProt P51114: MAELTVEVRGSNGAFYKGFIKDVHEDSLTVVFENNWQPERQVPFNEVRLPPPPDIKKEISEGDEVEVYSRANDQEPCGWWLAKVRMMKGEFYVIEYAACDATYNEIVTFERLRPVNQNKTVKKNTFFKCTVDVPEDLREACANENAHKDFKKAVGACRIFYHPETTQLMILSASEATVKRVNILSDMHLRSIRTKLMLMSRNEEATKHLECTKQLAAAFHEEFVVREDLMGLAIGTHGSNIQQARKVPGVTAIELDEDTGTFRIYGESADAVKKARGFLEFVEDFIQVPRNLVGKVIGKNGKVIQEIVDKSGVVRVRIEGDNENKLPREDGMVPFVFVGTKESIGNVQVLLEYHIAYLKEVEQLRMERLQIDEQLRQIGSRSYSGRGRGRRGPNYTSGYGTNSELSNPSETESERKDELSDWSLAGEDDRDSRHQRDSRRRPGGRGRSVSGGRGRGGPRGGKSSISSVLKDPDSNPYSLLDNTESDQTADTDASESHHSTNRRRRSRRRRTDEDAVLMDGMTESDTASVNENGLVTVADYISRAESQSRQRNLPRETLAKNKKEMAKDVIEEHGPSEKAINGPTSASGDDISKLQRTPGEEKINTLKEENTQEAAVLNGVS
UniProt Q13283: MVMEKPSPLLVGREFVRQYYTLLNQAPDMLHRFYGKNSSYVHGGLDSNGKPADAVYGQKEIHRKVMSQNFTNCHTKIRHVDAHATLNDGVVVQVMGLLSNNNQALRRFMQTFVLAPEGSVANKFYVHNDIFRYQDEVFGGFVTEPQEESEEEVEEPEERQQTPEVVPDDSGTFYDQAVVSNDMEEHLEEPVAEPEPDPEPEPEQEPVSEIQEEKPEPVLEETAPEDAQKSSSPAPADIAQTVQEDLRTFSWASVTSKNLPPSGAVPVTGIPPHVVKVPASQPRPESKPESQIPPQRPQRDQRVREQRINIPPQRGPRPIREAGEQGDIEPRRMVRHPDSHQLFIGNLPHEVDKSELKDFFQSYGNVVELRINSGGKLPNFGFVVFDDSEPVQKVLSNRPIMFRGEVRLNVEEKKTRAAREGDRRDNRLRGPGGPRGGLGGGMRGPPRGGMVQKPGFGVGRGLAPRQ
UniProt P11940: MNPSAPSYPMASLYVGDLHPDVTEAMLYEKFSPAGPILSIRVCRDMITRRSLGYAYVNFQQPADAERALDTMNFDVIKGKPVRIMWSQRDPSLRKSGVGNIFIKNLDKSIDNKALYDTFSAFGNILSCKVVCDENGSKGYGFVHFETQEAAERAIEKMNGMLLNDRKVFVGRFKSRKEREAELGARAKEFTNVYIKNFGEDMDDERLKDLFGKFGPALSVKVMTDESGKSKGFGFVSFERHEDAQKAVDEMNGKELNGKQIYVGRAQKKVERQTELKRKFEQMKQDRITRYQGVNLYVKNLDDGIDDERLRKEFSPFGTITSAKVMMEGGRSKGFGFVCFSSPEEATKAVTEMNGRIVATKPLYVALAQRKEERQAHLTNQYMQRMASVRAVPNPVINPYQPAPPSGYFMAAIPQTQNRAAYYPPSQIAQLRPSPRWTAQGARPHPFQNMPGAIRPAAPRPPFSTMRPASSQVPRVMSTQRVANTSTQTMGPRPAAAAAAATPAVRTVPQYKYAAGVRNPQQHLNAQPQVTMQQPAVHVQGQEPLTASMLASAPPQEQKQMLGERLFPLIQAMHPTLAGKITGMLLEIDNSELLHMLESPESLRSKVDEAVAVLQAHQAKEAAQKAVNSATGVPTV

Target: GRASP65-3xFlag-mAID (human (endogenous in RC65, SV589-derived)) (UniProt Q9BQQ3)
Test: affinity purification with mass spectrometry

binding	Molecule
binds	FXR1 (Fragile X mental retardation syndrome-related protein 1) (from UniProt P51114 1-621)
binds	G3BP1 (G3BP Stress Granule Assembly Factor 1) (from UniProt Q13283 1-466)
binds	PABPC1 (PABP/Polyadenylate-binding protein 1) (from UniProt P11940 1-636)
binds	GM130 (protein, UniProt Q08379 1-1002) MWPQPRLPPRPAMSEETRQSKLAAAKKKLREYQQRNSPGVPTGAKKKKKIKNGSNPETTTSGGCHSPEDTPKDNAATLQPSDDTVLPGGVPSPGASLTSMAASQNHDADNVPNLMDETKTFSSTESLRQLSQQLNGLVCESATCVNGEGPASSANLKDLESRYQQLAVALDSSYVTNKQLNITIEKLKQQNQEITDQLEEEKKECHQKQGALREQLQVHIQTIGILVSEKAELQTALAHTQHAARQKEGESEDLASRLQYSRRRVGELERALSAVSTQQKKADRYNKELTKERDALRLELYKNTQSNEDLKQEKSELEEKLRVLVTEKAGMQLNLEELQKKLEMTELLLQQFSSRCEAPDANQQLQQAMEERAQLEAHLGQVMESVRQLQMERDKYAENLKGESAMWRQRMQQMSEQVHTLREEKECSMSRVQELETSLAELRNQMAEPPPPEPPAGPSEVEQQLQAEAEHLRKELEGLAGQLQAQVQDNEGLSRLNREQEERLLELERAAELWGEQAEARRQILETMQNDRTTISRALSQNRELKEQLAELQSGFVKLTNENMEITSALQSEQHVKRELGKKLGELQEKLSELKETVELKSQEAQSLQQQRDQYLGHLQQYVAAYQQLTSEKEVLHNQLLLQTQLVDQLQQQEAQGKAVAEMARQELQETQERLEAATQQNQQLRAQLSLMAHPGEGDGLDREEEEDEEEEEEEAVAVPQPMPSIPEDLESREAMVAFFNSAVASAEEEQARLRGQLKEQRVRCRRLAHLLASAQKEPEAAAPAPGTGGDSVCGETHRALQGAMEKLQSRFMELMQEKADLKERVEELEHRCIQLSGETDTIGEYIALYQSQRAVLKERHREKEEYISRLAQDKEEMKVKLLELQELVLRLVGDRNEWHGRFLAAAQNPADEPTSGAPAPQELGAANQQGDLCEVSLAGSVEPAQGEAREGSPRDNPTAQQIMQLLREMQNPRERPGLGSNPCIPFFYRADENDEVKITVI

No constants are given. Whether binding was seen depends on the method and setting. Binding seen in cells or lysates may run through a third protein. These calls come from enrichment with a bait or labelling near it, and not all partners need be listed.
